For this experiment, the target named is Flag-tagged full-length TMUB1 (pcDNA-FLAG-Tmub1, amino acids 1-245) (rat). The experiment in a line: co-IP; BRL-3A transfected with Flag-tagged full-length TMUB1 or deletion mutants; beads with anti-Flag antibody, blot anti-CAML, and beads with anti-CAML antibody, blot anti-Flag; lysis buffer 20 mM Tris-HCl pH 7.5, 500 mM NaCl, 2% Triton X-100; overnight at 4 °C.

Results on 1 molecule are retold here after article PMC6028644.

No constants are given. Whether binding was seen depends on the method and setting. Binding seen in cells or lysates may run through a third protein. Binding calls can cover weak binding; strength is not graded here.

B1: calcium-modulating cyclophilin ligand (CAML), endogenous in BRL-3A rat hepatocytes (protein, UniProt Q6DGG9 1-295)
chain: MEPMPSATDGGDRSATPSGLSASQRRAELRRRKLLMNSEQRINRIMGFHRPGSGAEEENQTKSKPLDSDILNPLGVPSVSKRVVLGDSVDGGVTDYQPSGGADIRGAQLGDKLDSFIKAPECSSKDGVELRQRNRGDLTADSAPRGSHHGLEQYLSRFEEAMKLRKQLISEKPSQEDGRTTEEFDSFRIFRLVGCALLALVVRAFVCKYLSIFAPFLTLQLAYMGLYKYFPKGEKKVKTTVLTAALLLSGIPAEVINRSMDTYSKMGEVFTDLCVYFFTFIFCHEVLEYWGPEVP
On to B1, for which the binding entry was “binds”.
